These are yes or no findings as the source states them, for the method shown. For part of these data: A result given as binding can be weak or reduced; the word gives no strength.

Experiment [1] addresses type I collagen. Briefly: slot blot, peptide (5-100 µg/mL) on NC membrane, 1% collagen solution added.
In experiment [2] the target is type IV collagen. The description is as above.
Experiment [3] has as its target type IV collagen. Briefly: condition: peptide tested at 5, 10, 25, 50, and 100 µg/mL; slot blot, peptide on NC membrane, 1% collagen solution added.

As to YGLRSKSKKFRRPDIQYPDAT [peptide of SEQ ID NO: 1 (Human bone sialoprotein I 149-169)], the binding entry in experiment [1] and in experiment [2] was “binds” each time.
For LTEFPLRMRDWLKN [peptide of SEQ ID NO: 3 (Human osteonectin 160-173)], the values for the binding result in experiment [1] and in experiment [3] were “binds” and “no binding”, respectively.
Taken in the same sequence, the figures for RPRYYLYKHAYFYPHLKRFP [peptide of SEQ ID NO: 2 (Human bone sialoprotein II 41-60)] were “binds” and “no binding”.

For the origin of these results see patent publication US20220242904A1.
